The other results are listed elsewhere or left out.
Compound: COc1ccc(Cn2ccc3cc(C)c(C(=O)NO)cc32)cc1
Experiment: dose-dependent thermal stabilisation call (2D-TPP, DLPTP, 10% FDR) (binary (1 = stabilised)); higher = stabilised by the compound
Conditions: system: HL-60 intact cells; concentration range 0.04-10 µM
Experimental: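 2D thermal proteome profiling in intact HL-60 cells treated with BRD-3811 (0, 0.04, 0.29, 2, 10 uM) for 90 min at 37 C, then heated 3 min at one of 12 temperatures (42-63.9 C). Soluble protein was quantified by TMT10 MS. The value is the DLPTP call of the paper: dose-dependent thermal stabilisation over all temperatures at 10% FDR (F-test of a dose-response against a flat model); one experiment, one call per tested protein.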

Chains of the proteins cited; added tags and fusions are not shown. Lines headed by an entry give the natural chain unless they say otherwise; changes in a name come on top.
UniProt P43487, whole entry: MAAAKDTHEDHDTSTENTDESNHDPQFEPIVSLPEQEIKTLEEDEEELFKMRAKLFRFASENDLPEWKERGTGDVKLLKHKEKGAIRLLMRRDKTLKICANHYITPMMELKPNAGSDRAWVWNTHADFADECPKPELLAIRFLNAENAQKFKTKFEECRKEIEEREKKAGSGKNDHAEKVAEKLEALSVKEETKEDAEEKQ
UniProt Q92930: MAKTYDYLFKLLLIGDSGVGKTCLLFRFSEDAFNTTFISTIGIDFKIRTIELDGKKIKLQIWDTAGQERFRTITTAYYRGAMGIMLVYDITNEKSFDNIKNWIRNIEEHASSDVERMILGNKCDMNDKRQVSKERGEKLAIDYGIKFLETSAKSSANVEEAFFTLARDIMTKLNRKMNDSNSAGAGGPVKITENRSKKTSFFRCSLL
UniProt Q96PZ0: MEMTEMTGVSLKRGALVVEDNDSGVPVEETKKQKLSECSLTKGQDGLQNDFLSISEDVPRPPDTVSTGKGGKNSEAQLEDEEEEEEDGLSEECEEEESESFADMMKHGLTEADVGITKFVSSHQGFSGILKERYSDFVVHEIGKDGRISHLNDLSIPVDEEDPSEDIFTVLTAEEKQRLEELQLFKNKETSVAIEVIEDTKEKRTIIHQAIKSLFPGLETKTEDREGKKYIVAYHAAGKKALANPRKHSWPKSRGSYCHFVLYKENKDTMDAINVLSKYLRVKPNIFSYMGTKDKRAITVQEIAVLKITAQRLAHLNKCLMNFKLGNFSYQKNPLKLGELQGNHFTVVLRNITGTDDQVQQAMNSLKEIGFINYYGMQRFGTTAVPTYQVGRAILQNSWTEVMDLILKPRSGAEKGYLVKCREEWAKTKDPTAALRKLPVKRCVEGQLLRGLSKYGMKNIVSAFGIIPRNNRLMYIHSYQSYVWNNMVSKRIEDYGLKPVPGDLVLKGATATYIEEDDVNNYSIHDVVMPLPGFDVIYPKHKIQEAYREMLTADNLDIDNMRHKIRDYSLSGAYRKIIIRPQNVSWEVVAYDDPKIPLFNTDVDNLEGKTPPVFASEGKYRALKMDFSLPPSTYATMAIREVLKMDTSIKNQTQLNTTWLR
UniProt Q8NBN7: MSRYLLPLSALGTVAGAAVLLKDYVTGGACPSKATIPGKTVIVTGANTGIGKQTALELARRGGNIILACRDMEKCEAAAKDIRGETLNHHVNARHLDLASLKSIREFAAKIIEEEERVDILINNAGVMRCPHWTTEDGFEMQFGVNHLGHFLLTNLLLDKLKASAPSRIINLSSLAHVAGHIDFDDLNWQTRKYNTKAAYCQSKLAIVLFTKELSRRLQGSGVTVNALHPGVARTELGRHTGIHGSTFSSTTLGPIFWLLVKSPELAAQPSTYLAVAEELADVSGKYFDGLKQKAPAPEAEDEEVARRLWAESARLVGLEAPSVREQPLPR
UniProt P51148: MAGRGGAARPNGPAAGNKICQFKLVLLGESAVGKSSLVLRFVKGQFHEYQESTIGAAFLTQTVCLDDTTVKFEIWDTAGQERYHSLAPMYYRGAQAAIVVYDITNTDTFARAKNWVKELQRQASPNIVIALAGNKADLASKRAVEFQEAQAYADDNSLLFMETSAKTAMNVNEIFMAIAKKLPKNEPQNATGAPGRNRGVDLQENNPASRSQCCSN
UniProt Q6ZS11: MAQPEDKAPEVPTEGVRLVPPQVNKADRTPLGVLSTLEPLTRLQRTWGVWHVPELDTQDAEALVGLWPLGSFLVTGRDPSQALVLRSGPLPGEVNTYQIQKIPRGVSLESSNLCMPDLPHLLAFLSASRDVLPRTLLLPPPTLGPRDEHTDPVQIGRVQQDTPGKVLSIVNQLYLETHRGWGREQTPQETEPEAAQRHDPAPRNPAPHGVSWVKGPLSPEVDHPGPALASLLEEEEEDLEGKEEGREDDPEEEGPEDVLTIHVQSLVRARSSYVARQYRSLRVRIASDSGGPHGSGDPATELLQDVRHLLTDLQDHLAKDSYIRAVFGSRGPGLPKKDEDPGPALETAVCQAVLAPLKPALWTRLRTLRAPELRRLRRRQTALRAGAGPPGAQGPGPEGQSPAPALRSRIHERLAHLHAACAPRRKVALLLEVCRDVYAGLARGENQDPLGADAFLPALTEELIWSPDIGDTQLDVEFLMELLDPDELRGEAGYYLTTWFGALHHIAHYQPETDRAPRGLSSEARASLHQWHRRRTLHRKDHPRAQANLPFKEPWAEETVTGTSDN
UniProt P51149, whole entry: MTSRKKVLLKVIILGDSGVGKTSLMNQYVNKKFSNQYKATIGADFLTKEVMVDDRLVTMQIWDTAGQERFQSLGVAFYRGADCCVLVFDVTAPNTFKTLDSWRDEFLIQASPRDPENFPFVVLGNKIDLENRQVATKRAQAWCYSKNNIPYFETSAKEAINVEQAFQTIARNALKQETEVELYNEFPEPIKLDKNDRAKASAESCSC
UniProt P23470: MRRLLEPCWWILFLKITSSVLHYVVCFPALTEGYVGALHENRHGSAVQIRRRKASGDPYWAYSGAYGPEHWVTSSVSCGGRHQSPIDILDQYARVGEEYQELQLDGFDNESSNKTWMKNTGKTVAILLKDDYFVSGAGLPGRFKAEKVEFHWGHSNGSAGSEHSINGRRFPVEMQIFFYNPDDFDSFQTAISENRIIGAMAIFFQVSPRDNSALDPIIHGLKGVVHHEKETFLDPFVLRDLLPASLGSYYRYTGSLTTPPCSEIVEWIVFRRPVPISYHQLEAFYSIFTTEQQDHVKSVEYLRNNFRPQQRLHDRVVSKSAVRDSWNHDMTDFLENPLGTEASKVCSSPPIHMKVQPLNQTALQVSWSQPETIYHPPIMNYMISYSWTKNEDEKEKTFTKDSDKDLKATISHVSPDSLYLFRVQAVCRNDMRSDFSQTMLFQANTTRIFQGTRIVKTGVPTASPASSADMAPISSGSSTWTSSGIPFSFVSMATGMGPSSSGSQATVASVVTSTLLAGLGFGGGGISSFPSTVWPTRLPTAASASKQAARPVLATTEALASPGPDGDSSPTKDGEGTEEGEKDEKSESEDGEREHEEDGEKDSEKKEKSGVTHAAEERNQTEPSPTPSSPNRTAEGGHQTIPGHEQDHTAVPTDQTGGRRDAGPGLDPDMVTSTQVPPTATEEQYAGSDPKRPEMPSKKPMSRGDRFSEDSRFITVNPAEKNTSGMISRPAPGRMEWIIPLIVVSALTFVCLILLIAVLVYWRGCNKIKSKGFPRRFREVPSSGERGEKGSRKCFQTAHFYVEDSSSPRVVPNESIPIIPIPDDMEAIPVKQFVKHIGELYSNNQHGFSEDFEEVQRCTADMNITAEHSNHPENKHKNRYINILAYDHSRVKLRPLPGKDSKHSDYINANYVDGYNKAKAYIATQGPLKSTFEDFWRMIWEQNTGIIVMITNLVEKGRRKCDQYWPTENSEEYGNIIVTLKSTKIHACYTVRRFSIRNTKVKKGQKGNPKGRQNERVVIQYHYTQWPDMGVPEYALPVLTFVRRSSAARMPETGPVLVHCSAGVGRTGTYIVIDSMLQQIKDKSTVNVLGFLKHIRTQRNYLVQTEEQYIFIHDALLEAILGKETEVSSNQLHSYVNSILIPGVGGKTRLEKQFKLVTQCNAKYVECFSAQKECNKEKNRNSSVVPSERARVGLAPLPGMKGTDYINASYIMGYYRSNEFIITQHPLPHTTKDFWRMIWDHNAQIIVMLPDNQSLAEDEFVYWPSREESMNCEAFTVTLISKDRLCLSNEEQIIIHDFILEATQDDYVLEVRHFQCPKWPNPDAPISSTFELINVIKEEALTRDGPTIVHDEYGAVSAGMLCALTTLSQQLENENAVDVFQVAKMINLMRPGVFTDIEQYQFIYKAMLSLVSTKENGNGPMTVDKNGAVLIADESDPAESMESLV
UniProt Q96S59, whole entry: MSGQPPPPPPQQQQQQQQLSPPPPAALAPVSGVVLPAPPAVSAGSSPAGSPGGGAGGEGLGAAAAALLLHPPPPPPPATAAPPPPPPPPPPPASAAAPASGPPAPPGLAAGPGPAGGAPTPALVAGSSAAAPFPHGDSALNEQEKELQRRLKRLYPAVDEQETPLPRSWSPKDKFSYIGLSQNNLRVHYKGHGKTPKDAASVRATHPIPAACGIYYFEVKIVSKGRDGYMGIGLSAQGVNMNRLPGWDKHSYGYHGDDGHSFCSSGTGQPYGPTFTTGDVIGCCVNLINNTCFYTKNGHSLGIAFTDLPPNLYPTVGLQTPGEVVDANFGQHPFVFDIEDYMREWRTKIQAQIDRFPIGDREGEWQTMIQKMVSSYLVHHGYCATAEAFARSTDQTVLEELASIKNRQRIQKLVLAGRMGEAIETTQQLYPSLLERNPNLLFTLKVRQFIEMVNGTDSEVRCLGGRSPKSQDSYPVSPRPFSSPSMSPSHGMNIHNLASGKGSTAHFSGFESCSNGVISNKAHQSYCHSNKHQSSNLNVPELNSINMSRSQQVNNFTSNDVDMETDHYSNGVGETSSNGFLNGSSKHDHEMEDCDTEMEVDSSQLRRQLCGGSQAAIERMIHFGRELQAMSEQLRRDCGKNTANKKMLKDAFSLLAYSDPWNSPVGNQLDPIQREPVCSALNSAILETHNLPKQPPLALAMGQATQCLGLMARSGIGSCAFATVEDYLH
UniProt O00287: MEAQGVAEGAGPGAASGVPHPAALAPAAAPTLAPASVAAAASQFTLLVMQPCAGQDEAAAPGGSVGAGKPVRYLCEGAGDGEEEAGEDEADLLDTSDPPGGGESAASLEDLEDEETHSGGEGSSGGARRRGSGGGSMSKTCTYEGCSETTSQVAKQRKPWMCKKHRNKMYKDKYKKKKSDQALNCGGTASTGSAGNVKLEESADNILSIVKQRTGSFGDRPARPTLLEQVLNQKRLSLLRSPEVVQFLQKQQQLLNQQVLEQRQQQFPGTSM
UniProt Q9NX57: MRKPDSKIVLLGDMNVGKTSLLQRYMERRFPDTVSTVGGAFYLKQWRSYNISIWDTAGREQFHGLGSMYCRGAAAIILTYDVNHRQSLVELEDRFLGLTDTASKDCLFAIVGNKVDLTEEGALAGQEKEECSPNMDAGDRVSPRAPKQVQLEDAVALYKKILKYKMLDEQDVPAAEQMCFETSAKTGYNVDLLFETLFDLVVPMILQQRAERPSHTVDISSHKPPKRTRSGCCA
UniProt Q9H0U4: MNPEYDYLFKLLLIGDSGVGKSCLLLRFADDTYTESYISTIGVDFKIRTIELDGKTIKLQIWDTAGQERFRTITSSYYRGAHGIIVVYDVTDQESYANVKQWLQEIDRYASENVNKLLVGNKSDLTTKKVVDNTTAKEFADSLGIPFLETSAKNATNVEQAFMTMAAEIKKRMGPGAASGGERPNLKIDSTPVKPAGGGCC
UniProt Q6WKZ4: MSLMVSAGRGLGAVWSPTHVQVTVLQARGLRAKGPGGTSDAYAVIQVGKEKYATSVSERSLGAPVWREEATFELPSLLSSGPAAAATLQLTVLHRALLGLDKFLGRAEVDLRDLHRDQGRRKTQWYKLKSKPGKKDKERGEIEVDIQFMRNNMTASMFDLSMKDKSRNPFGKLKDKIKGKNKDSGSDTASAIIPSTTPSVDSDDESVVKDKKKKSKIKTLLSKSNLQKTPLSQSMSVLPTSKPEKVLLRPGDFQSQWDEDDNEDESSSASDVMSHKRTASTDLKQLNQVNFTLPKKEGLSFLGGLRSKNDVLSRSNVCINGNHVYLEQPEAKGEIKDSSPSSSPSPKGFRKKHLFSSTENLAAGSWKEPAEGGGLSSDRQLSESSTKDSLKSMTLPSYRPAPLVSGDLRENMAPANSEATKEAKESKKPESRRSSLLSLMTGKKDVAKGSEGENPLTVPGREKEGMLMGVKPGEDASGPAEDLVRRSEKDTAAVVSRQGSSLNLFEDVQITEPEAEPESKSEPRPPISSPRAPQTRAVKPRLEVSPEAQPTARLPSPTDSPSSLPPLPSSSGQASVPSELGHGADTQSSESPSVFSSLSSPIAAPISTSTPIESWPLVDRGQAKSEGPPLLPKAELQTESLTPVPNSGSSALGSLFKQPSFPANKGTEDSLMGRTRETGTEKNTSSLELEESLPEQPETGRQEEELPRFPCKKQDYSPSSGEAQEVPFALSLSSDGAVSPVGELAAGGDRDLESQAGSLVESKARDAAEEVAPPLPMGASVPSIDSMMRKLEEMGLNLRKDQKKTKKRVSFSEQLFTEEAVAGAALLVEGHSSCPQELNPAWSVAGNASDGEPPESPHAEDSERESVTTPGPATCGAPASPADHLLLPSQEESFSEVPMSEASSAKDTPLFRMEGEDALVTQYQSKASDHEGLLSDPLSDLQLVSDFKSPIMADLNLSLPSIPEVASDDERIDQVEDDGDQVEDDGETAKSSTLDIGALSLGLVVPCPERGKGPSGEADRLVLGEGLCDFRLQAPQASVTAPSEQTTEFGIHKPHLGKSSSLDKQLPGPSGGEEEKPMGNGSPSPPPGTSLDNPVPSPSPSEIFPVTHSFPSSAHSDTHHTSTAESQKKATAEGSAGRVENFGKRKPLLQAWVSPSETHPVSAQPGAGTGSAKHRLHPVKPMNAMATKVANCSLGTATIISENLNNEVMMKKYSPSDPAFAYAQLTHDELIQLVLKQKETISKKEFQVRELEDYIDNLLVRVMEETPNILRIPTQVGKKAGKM

Target: RAB14 (UniProt P61106)
- dose-dependent thermal stabilisation call: inactive: 0

Target: RNF20 (UniProt Q5VTR2)
- dose-dependent thermal stabilisation call: inactive: 0

Target: RNF220 (UniProt Q5VTB9)
- dose-dependent thermal stabilisation call: inactive: 0

Target: RCOR1 (UniProt Q9UKL0)
- dose-dependent thermal stabilisation call: inactive: 0

Target: RANBP1 (UniProt P43487)
- dose-dependent thermal stabilisation call: inactive: 0

Target: RAB8B (UniProt Q92930)
- dose-dependent thermal stabilisation call: inactive: 0

Target: PUS7 (UniProt Q96PZ0)
- dose-dependent thermal stabilisation call: inactive: 0

Target: RDH13 (UniProt Q8NBN7)
- dose-dependent thermal stabilisation call: inactive: 0

Target: RAB5C (UniProt P51148)
- dose-dependent thermal stabilisation call: inactive: 0

Target: RINL (UniProt Q6ZS11)
- dose-dependent thermal stabilisation call: inactive: 0

Target: RNF168 (UniProt Q8IYW5)
- dose-dependent thermal stabilisation call: inactive: 0

Target: RAB7A (UniProt P51149)
- dose-dependent thermal stabilisation call: inactive: 0

Target: PTPRG (UniProt P23470)
- dose-dependent thermal stabilisation call: inactive: 0

Target: RAD54L (UniProt Q92698)
- dose-dependent thermal stabilisation call: inactive: 0

Target: RANBP6 (UniProt O60518)
- dose-dependent thermal stabilisation call: inactive: 0

Target: RANBP9 (UniProt Q96S59)
- dose-dependent thermal stabilisation call: inactive: 0

Target: RMND5A (UniProt Q9H871)
- dose-dependent thermal stabilisation call: inactive: 0

Target: RNF113A (UniProt O15541)
- dose-dependent thermal stabilisation call: inactive: 0

Target: QPCTL (UniProt Q9NXS2)
- dose-dependent thermal stabilisation call: inactive: 0

Target: RIN3 (UniProt Q8TB24)
- dose-dependent thermal stabilisation call: inactive: 0

Target: RFXAP (UniProt O00287)
- dose-dependent thermal stabilisation call: inactive: 0

Target: RAB20 (UniProt Q9NX57)
- dose-dependent thermal stabilisation call: inactive: 0

Target: REXO4 (UniProt Q9GZR2)
- dose-dependent thermal stabilisation call: inactive: 0

Target: RAE1 (UniProt P78406)
- dose-dependent thermal stabilisation call: inactive: 0

Target: RAB1B (UniProt Q9H0U4)
- dose-dependent thermal stabilisation call: inactive: 0

Target: RAF1 (UniProt P04049)
- dose-dependent thermal stabilisation call: inactive: 0

Target: RAB11FIP1 (UniProt Q6WKZ4)
- dose-dependent thermal stabilisation call: inactive: 0

From the supplement of paper PMC7666118
